Laboratory results published in PubChem BioAssay AID1487 (National Center for Advancing Translational Sciences (NCATS), 2009).
Screen size: about 200,000 compounds; about 25 (0.01%) were called active. This list was built around the results that the source calls inconclusive (neither active nor inactive); the mix of calls is not that of the screen. Calls follow the shape of the dose curve; as a rule, active = well fitted inhibition curve with a large enough effect in the signal ratio, with a control signal flat (not every such curve was filed as active); inconclusive = small, poorly fitted or top-dose-only effect, or effect the other way, or a change in a side signal; inactive = flat fitted curve, though single readings scatter; the % refers to the signal ratio. Potencies beside an inconclusive call are fits to weak or partial responses and may not hold up.
% is scaled to controls: 0 for no effect and ±100 for the full control effect; potency is read from the fitted curve at half-maximal effect.

Assay: qHTS Assay for Modulators of Lamin A Splicing
Settings: HeLa LMNA splicing GFP/RFP minigene ratio, 48 h; ratio change, negative = inhibition: at 46.1 µM (top of the series) unless noted
Outline: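 S3 HeLa cells stably expressing lamin A-EGFP splicing minigene plus DsRed2, 600 cells/well, 48 h compound exposure at 37C. Laser-scanning cytometry; analysed as GFP (500-530 nm)/RFP (575-640 nm) total intensity ratio; 0.5% DMSO vehicle.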
With `CCC(CO)NCc1ccccc1OC(C)C` (configuration not stated) the ratio change, negative = inhibition was inconclusive: 5.98% [at 46 µM]. In the case of `Cc1cccnc1NC(=O)CCCN1C(=O)c2ccccc2C1=O`, the “ratio change, negative = inhibition” value is reported as inactive: -2.19%. With `O=C(NCC(c1ccco1)S(=O)(=O)c1cccs1)c1ccc(C(F)(F)F)cc1` (configuration not stated) the ratio change, negative = inhibition was inconclusive: 11.8% [at 46 µM]. For `S=C(NCc1ccco1)Nc1ccc(N2CCOCC2)cc1`, the ratio change, negative = inhibition was inconclusive: 1.41%. With `Cc1cc(-n2c(C)cc(C(=O)COc3ccc([N+](=O)[O-])cc3)c2C)no1` the ratio change, negative = inhibition was inconclusive: -38.1% [at 46 µM]. With `CS(=O)(=O)Nc1ccc(C2=NN(C(=O)c3ccco3)C(c3cccc(F)c3)C2)cc1` (configuration not stated) the ratio change, negative = inhibition was inconclusive: 17.5% [at 9.22 µM]. For `O=C(Nc1ccccc1)N(C1=NCCC1)c1ccc(OC(F)F)cc1`, the ratio change, negative = inhibition was inconclusive: 10.7%. For `C=CCOC(=O)C1=C(C)NC(=S)NC1/C=C/c1ccccc1` (configuration not stated), the ratio change, negative = inhibition was inconclusive: 14.6%. With `Cc1ccc(NC(=O)Cn2nc(C)c(S(=O)(=O)N(C)C)c2C)cc1` the ratio change, negative = inhibition was inconclusive: 3.08% [at 46 µM]. With `COC(=O)c1c(NC(=O)COC(=O)c2ccc(Cl)cc2[N+](=O)[O-])sc2c1CCCCC2` the “ratio change, negative = inhibition” value was inactive: -7.93%. For `O=C(Nc1ccccc1[N+](=O)[O-])c1csnn1`, the ratio change, negative = inhibition was inconclusive: 11% [at 46 µM]. In the case of `CCOc1ccc(-n2c(SCC(=O)N3CCCc4ccccc43)nc3c([nH]c4ccccc43)c2=O)cc1`, the ratio change, negative = inhibition is reported as inconclusive: 13.8% [at 46 µM]. In the case of `CCCNC(=O)OCCC12CC3CC(CC(C3)C1)C2`, the ratio change, negative = inhibition is reported as inconclusive: 1.22%. For `Cn1ncc(Cl)c1C(=O)NC1C2CC3CC(C2)CC1C3` (configuration not stated), the ratio change, negative = inhibition was inconclusive: 14.9% [at 46 µM]. For `CCOc1cc(/C=N/NC(=O)CSc2nncn2C)ccc1OCc1ccccc1`, the ratio change, negative = inhibition was inconclusive: 18%. With `C=CCNC(=S)NCc1cccnc1` the “ratio change, negative = inhibition” value was inactive: -4.8%. In the case of `O=c1cc(-c2ccc(O)cc2)oc2cc(OC3OC(CO)C(O)C(O)[C@H]3O[C@@H]3OC[C@@](O)(CO)C3O)cc(O)c12` (some centres not stated), the “ratio change, negative = inhibition” value is reported as inactive: -3.28%. For `CS(=O)(=O)Nc1cccc(-c2cc(NCc3ccccc3)ncn2)c1`, the “ratio change, negative = inhibition” value was inactive: -2.53%. For `Cc1ccc(N2CCN(C(=O)Nc3cn(CC(C)C)c(=O)c4ccccc34)CC2)c(C)c1`, the ratio change, negative = inhibition was inconclusive: -19.7% [at 46 µM]. In the case of `O=C(Nc1ccccc1-c1nc2ccccc2s1)c1ccco1`, the ratio change, negative = inhibition is reported as inconclusive: 15.3%. In the case of `C=C(C)CSc1nncn1/N=C/c1ccc(OC)cc1`, the ratio change, negative = inhibition is reported as inconclusive: 10.7%. For `COc1ccccc1NC(=O)N1CCOc2ccccc21`, the “ratio change, negative = inhibition” value was inactive: 1.29% [at 46 µM]. For `Cc1ccc(CNC(=O)c2ccc(CSCc3c(F)cccc3Cl)o2)cc1`, the Potency was inconclusive: 35.5 µM [falling, single point]. With `COc1ccc(S(=O)(=O)n2ccc(C(C)Oc3ccc(-c4ccccc4)c(F)c3)n2)cc1` (configuration not stated) the Potency was inconclusive: 11.2 µM [falling, partial curve]. In the case of `Cc1noc(C)c1-c1nc(NCc2cccs2)c2ccccc2n1`, the “ratio change, negative = inhibition” value is reported as inactive: -5.29%. In the case of `Cc1nc(NC(=O)c2ccco2)sc1-c1csc(Nc2ccc(Cl)cc2)n1`, the ratio change, negative = inhibition is reported as inconclusive: 9.84% [at 0.0737 µM]. With `CCSc1nnc(NC(=O)CSc2nnc(CNC(=O)c3ccccc3F)o2)s1` the ratio change, negative = inhibition was inconclusive: -1.86%. With `Cc1c(Cl)cccc1N=Cc1ccc([N+](=O)[O-])s1` the Potency was inconclusive: 35.5 µM [cytotoxic, single point]. With `COCC(C)n1c(=O)sc2ccccc2c1=O` (configuration not stated) the ratio change, negative = inhibition was inconclusive: -0.322% [at 46 µM]. For `CN1CCc2c(sc(N)c2C(N)=O)C1`, the “ratio change, negative = inhibition” value was inactive: -5.61%. With `CCOc1ccc(NC(=O)C[n+]2ccc(N(C)C)cc2)cc1` the Potency was inconclusive: 35.5 µM [falling, single point]. For `Cc1cccc(NC(c2nnc(-c3ccccc3)o2)c2ccc(F)cc2Cl)c1C` (configuration not stated), the ratio change, negative = inhibition was inconclusive: 4.94% [at 46 µM]. For `O=C(NCc1ccccc1)c1ccc2c(c1)sc1nc(-c3ccc(F)cc3)cn12`, the ratio change, negative = inhibition was inconclusive: -2.22% [at 46 µM]. In the case of `CC1(C)Cc2c(sc3nnn(CC(=O)Nc4ccccc4)c(=O)c23)CO1`, the ratio change, negative = inhibition is reported as inconclusive: 25% [at 46 µM]. For `CC1(C)CC(CC(=O)Nc2ccc([N+](=O)[O-])cc2)C(=O)O1` (configuration not stated), the ratio change, negative = inhibition was inactive: 10.8% [at 0.0737 µM]. With `CCOC(=O)c1ccc(NC(=O)COc2ccccc2CNC2CCCC2)cc1` the ratio change, negative = inhibition was inconclusive: 13.7% [at 46 µM]. For `COc1ccccc1-c1cc(C(F)(F)F)nc(NCc2cccs2)n1`, the Potency was inconclusive: 35.5 µM [fluorescent, single point]. For `COc1ccccc1N1CC(C(=O)Nc2cccc(C(=O)O)c2)CC1=O` (configuration not stated), the “ratio change, negative = inhibition” value was inactive: 7%. In the case of `CN1CCc2c(sc3c2c(=O)n(-c2ccccc2)c2n[nH]c(=S)n32)C1`, the “ratio change, negative = inhibition” value is reported as inactive: 3.46%. For `CNc1c([N+](=O)[O-])cnn1-c1ccccc1F`, the ratio change, negative = inhibition was inconclusive: -1.59% [at 46 µM]. In the case of `Cc1nc(NC(=S)Nc2ccccc2)sc1C`, the ratio change, negative = inhibition is reported as inconclusive: 46.9% [at 46 µM]. In the case of `COc1ccc(-c2nc(CN3CCCCC3c3cccnc3)c(C)o2)c(F)c1` (configuration not stated), the ratio change, negative = inhibition is reported as inconclusive: -3.05% [at 46 µM]. For `Cc1ccc(Nc2nc(N)nc(CC#N)n2)cc1`, the “ratio change, negative = inhibition” value was inactive: 7.44%. With `O=C1CCCc2c1cc(C(=O)O)c(=O)n2-c1ccccc1` the ratio change, negative = inhibition was inconclusive: -5.81% [at 46 µM]. For `COc1cc(NC(=O)CCCN2C(=O)CCn3nc(-c4cn(C)c5ccccc45)cc32)cc(OC)c1`, the ratio change, negative = inhibition was inconclusive: -32.1% [at 46 µM]. With `COc1ccccc1CNc1ncncc1-c1ccoc1` the ratio change, negative = inhibition was inconclusive: -13.5%. For `O=C(c1cnc(N2CCCCC2)c2ccccc12)N1CCN(c2ccc(F)cc2)CC1`, the ratio change, negative = inhibition was inconclusive: -14.2% [at 46 µM]. In the case of `Cc1cnc(CNc2ccnc(-c3c(C)noc3C)n2)cn1`, the ratio change, negative = inhibition is reported as inconclusive: -25.2%. With `Cc1ccc(-c2nc3scc(CCNS(=O)(=O)c4c(C)noc4C)n3n2)cc1` the ratio change, negative = inhibition was inconclusive: -19.7% [at 46 µM]. With `COc1cc2nc(N3CCN(C(=O)C4COc5ccccc5O4)CC3)nc(N)c2cc1OC` (configuration not stated) the ratio change, negative = inhibition was inconclusive: -43.4%. For `Cc1cc(CNC(=O)c2ccc3c(c2)OCO3)c2ccccc2n1`, the ratio change, negative = inhibition was inconclusive: -37.4% [at 46 µM]. For `O=C(/C=C/c1ccccc1)NCCSCc1ccc(Cl)cc1`, the “ratio change, negative = inhibition” value was inactive: -12.7%. For `Fc1ccc(-n2ncc3c(Nc4cccc(Cl)c4)ncnc32)cc1`, the ratio change, negative = inhibition was inconclusive: 63.9% [at 46 µM]. With `CC(=O)N1CCN(S(=O)(=O)c2cccc(C(=O)OCC(=O)N3CC(=O)Nc4ccccc43)c2)CC1` the ratio change, negative = inhibition was inconclusive: -8.7% [at 46 µM]. In the case of `CCc1ccccc1NC(=O)CCCN1C(=O)CCn2nc(-c3cn(C)c4ccccc34)cc21`, the ratio change, negative = inhibition is reported as inconclusive: -17.4% [at 46 µM]. With `O=C1NC(NS(=O)(=O)c2ccccc2)(C(F)(F)F)C(=O)N1c1ccc(F)cc1` (configuration not stated) the “ratio change, negative = inhibition” value was inactive: -5.44%. For `COCCNC(=O)c1ccc(CN2CCc3ccccc3C2)cc1`, the ratio change, negative = inhibition was inconclusive: 3.83%. For `CCCCOc1ncnc2c1[nH]c1ccccc12`, the ratio change, negative = inhibition was inconclusive: -40.7%. For `Cc1sc2ncnc(NCc3cccs3)c2c1C`, the ratio change, negative = inhibition was inconclusive: 35.5%. With `Cc1cc(C)cc(C(=O)NCC(c2ccc(N(C)C)cc2)N2CCCC2)c1` (configuration not stated) the Potency was inconclusive: 5.62 µM [inhibitor, partial curve]. In the case of `COC(=O)CN1C(c2ccccc2)=Nc2ccc(Cl)cc2C1c1ccccc1` (configuration not stated), the ratio change, negative = inhibition is reported as inconclusive: 35.1%. For `CCOc1ccc(NC2C=CS(=O)(=O)C2)cc1` (configuration not stated), the “ratio change, negative = inhibition” value was inactive: -3.35%. For `Cc1ccc2c(c1)N(C(=O)CCC(=O)N1CCc3ccccc3C1)CCO2`, the ratio change, negative = inhibition was inconclusive: -1.85%. In the case of `Cc1nc2ccccn2c1C(=O)OCC#N`, the ratio change, negative = inhibition is reported as inconclusive: 23.8% [at 46 µM]. In the case of `Cc1c(CN2CCCCC2)c(O)n(CCCO)c(=O)c1C#N`, the “ratio change, negative = inhibition” value is reported as inactive: 0.0077%. With `CC(C)(C)C(=O)/C=C/Nc1ccccc1O` the ratio change, negative = inhibition was inconclusive: -34.1%. With `Nc1ccccc1Nc1ccccc1` the Potency was inconclusive: 35.5 µM [inhibitor, single point]. For `CCOC(=O)C1CCN(C(c2ccccn2)c2c(C)[nH]c3ccccc23)CC1` (configuration not stated), the ratio change, negative = inhibition was inconclusive: -38.4%. For `Cc1ccc(C)c(C(=O)COc2ccccc2[N+](=O)[O-])c1`, the “ratio change, negative = inhibition” value was inactive: -13.4%. For `CCn1cc(C(=O)NCc2ccccn2)c(=O)c2cc(S(=O)(=O)N3CCCCC3)ccc21`, the “ratio change, negative = inhibition” value was inactive: 13.4%. In the case of `COc1ccc2[nH]c(=O)c(C(c3nnnn3C(C)(C)C)N(Cc3ccco3)CC3CCCO3)cc2c1` (configuration not stated), the “ratio change, negative = inhibition” value is reported as inactive: 21.3%. In the case of `CC(=O)O[C@]1(C(C)=O)CC[C@H]2[C@@H]3C=C(Cl)C4=CC(=O)CC[C@]4(C)[C@H]3CC[C@@]21C`, the ratio change, negative = inhibition is reported as inconclusive: 13.6%. With `COc1ccc(C(=O)C(C)N(C(=O)c2ccc(Cl)cc2Cl)N2C(=O)C3C4C=CC(C4)C3C2=O)cc1` (configuration not stated) the ratio change, negative = inhibition was inconclusive: -26.1%. For `O=C(Nc1nnc(-c2cccnc2)o1)c1cccc([N+](=O)[O-])c1`, the ratio change, negative = inhibition was inconclusive: 6.92% [at 46 µM]. For `CCOC(=O)C1=C(C)NC(=O)NC1c1ccc(OCC(N)=O)cc1` (configuration not stated), the “ratio change, negative = inhibition” value was inactive: -7.32%. With `CCOc1c2ccc(C(=O)NCc3ccco3)cc2nn1CC` the “ratio change, negative = inhibition” value was inactive: -6.19%. For `COc1ccccc1-c1nc(SCC(=O)NCc2ccccc2)c2c(=O)n(C)c(=O)n(C)c2n1`, the ratio change, negative = inhibition was inconclusive: -0.702% [at 46 µM]. In the case of `O=C(/C=C/c1c[nH]c2ccccc12)c1ccccc1`, the ratio change, negative = inhibition is reported as inconclusive: -37.6%. In the case of `CCOC(=O)N1CCC(NC(=O)c2cc(S(=O)(=O)N3CCC4(CC3)OCCO4)ccc2F)CC1`, the ratio change, negative = inhibition is reported as inconclusive: -32.1%. In the case of `Cc1ccc(/C=N/NC(=O)COc2ccccc2-c2ccccc2)cc1`, the Potency is reported as inconclusive: 0.1 µM [falling, full curve]. In the case of `Cc1nn(C)c2c1c(-c1ccccc1)cc(=O)n2CC(=O)NC(C)c1ccccc1` (configuration not stated), the “ratio change, negative = inhibition” value is reported as inactive: 19.2% [at 46 µM]. With `O=C(CCNC(=O)c1ccccc1Cl)Nc1nc(-c2ccccc2Cl)cs1` the Potency was inconclusive: 35.5 µM [fluorescent, single point].
